Laboratory results reported in patent publication US20200239927A1, “SENSOR FOR CYANURIC ACID DETECTION” (WISCONSIN ALUMNI RESEARCH FOUNDATION, priority 2019, published 2020).
Some results were stated once for a whole list of compounds, not compound by compound.

B1: Promoter 4: group 1 promoter variant weakened by deleting a single base from the -10 site (nucleic acid)
DNA: TCGGTGCCGGATCGGCACCAGTTAGGTCGGAAAAAGGCGGCAGTCAAGTGCGCTTTTTGTACCTATAAAGATTCATGATGA
modifications: expressed or natural sequence
B2: Promoter 7: group 1 promoter variant of presumed intermediate strength, -35 site mutated toward E. coli consensus (nucleic acid)
DNA: TCGGTGCCGGATCGGCACCAGTTAGGTCGGAAAAAGGCGGCAGACAAGTGCGCTTTTTGTACCTATATAGATTCATGATGA
modifications: expressed or natural sequence
B3: Promoter 8: group 1 promoter variant of presumed intermediate strength, -35 site mutated toward E. coli consensus (nucleic acid)
DNA: TCGGTGCCGGATCGGCACCAGTTAGGTCGGAAAAAGGCGGCAGACAAGTGCGCTTTTTGTACCTATAAAGATTCATGATGA
modifications: expressed or natural sequence
B4: Promoter 1: group 1 promoter variant; Pseudomonas -10 site replaced with consensus E. coli -10 site (nucleic acid)
DNA: ATGCGAGTCAAAGCAAGATCGGTGCCGGATCGGCACCAGTTAGGTCGGAAAAAGGCGGCAGTCAAGTGCGCAGGGCGGCGTTATAATTGAACGAA
modifications: expressed or natural sequence
notes: group 1 promoter variant; Pseudomonas -10 site replaced with consensus E. coli -10 site
B5: Promoter 2: group 1 promoter variant; sequence 3' of ABS 3 replaced with corresponding region of apFab71 (nucleic acid)
DNA: TCGGTGCCGGATCGGCACCAGTTAGGTCGGAAAAAGGCGGCAGTCAAGTGCGCTTTTTGTACCTATAATAGATTCATGATGA
modifications: expressed or natural sequence
B6: Promoter 3: group 1 promoter variant weakened by deleting a single base from the -10 site (nucleic acid)
DNA: TCGGTGCCGGATCGGCACCAGTTAGGTCGGAAAAAGGCGGCAGTCAAGTGCGCTTTTTGTACCTATATAGATTCATGATGA
modifications: expressed or natural sequence
B7: Promoter 5: group 1 promoter variant with consensus E. coli -35 and apFab71 3' sequence, on a high-copy number plasmid (nucleic acid)
DNA: TCGGTGCCGGATCGGCACCAGTTAGGTCGGAAAAAGGCGGCAGACAAGTGCGCTTTTTGTACCTATAATAGATTCATGATGA
B8: Promoter 11: group 2 promoter variant; RBS placed upstream of -35 (nucleic acid)
DNA: CAAGATCGGTGCCGGATCGGCACCAGTTAGGTCTTGACATCGCATCTTTTTGTACCTATAATAGATTCATGATGA
modifications: expressed or natural sequence
B9: Promoter 14: group 2 promoter variant, sequence SEQ ID NO: 16 (nucleic acid)
DNA: GACCTAACTGGTGCCGATCCGGCACCGATCTTGTTGACATCGCATCTTTTTGTACCTATAATAGATTCATGATGA
modifications: expressed or natural sequence
B10: WT promoter: wildtype Pseudomonas PatzDEF promoter, sequence SEQ ID NO: 2 (nucleic acid)
DNA: ATGCGAGTCAAAGCAAGATCGGTGCCGGATCGGCACCAGTTAGGTCGGAAAAAGGCGGCAGTCAAGTGCGCAGGGCGGCGTTAAGCTTGAACGAA
modifications: expressed or natural sequence

Tests used:
AtzR [1] = assay: Fold repression of GFP reporter by co-expressed AtzR; type: cell-based
Method: (§1) To measure fold repression, each reporter plasmid was co-transformed with low and high copy sensor plasmid separately. The end results include two test versions for each reporter plasmid: (the reporter plasmid, low copy sensor plasmid), (the reporter, high copy sensor plasmid), reporter plasmids were transformed with either of the sensor plasmids. Similar to the process of measuring promoter activity, the activities of at least 3 biological replicates were measured for each reporter and sensor plasmid pair. The only difference was that 50 μg/mL kanamycin and […] Spectinomycin were used to maintain both of the reporter and sensor plasmids. The fold repression was calculated as a ratio of the fluorescence of reporter divided by the fluorescence of this reporter when it was paired with a sensor plasmid. To measure fold induction, the process of obtaining fold repression was followed. The only difference was the addition of 200 μM cyanuric acid during the growth. The fold induction was calculated as a ratio of the fluorescence of the induced state divided by the fluorescence of the repressed state.

AtzR [2] = assay: Fold induction of GFP reporter by cyanuric acid with co-expressed AtzR; type: cell-based; settings: 200 μM cyanuric acid, medium not specified
Method: as §1

[3] = rich medium, even at high AtzR concentration

Molecule	fold repression (ratio of GFP expression without and with AtzR) (AtzR [1]; minimal medium)	fold repression (ratio of GFP expression without and with AtzR) (AtzR [1]; [3])	fold activation (ratio of GFP with and without cyanuric acid) (AtzR [2]) [fold]
Promoter 13: group 2 promoter variant; apFAB spacer replaced with RBS in R-L orientation (DNA TTGACAGGTGCCGATCCGGCACCTATAATAGATTCATGATGA; expressed or natural sequence)	less than 5 fold	less than 5 fold	
Promoter 16: group 2 promoter variant, sequence SEQ ID NO: 18 (DNA GGTGCCGATCCGGCACCTTTTTGTACCTATAATAGATTCATGATGA; expressed or natural sequence)	less than 5 fold	less than 5 fold	
Promoter 12: group 2 promoter variant, sequence SEQ ID NO: 14 (DNA GGTGCCGACACGGCACCTTTTTGTACCTATAATAGATTCATGATGA; expressed or natural sequence)	less than 5 fold	less than 5 fold	
Promoter 15: group 2 promoter variant; RBS placed upstream of -35 (DNA GGTGCCGATCCGGCACCTTGACATCGCATCTTTTTGTACCTATAATAGATTCATGATGA; expressed or natural sequence)	less than 5 fold	less than 5 fold	
Promoter 9: promoter variant, sequence SEQ ID NO: 11 (DNA TCGGTGCCGGATCGGCACCTGACAGGTCGGAAAAAGGCGGCTATAAGTGCGCATGATGA; expressed or natural sequence)	less than 5 fold	less than 5 fold	
B1	less than 5 fold		
B2	less than 5 fold		
B3	less than 5 fold		
B4	less than 5 fold	less than 5 fold	< 3.0
B5	less than 5 fold	less than 5 fold	
B6	less than 5 fold	less than 5 fold	
B7	less than 5 fold	less than 5 fold	
B8	less than 5 fold	less than 5 fold	
B9	less than 5 fold	less than 5 fold	
B10			< 3.0
